No constants are given. Whether binding was seen depends on the method and setting. In cells and extracts the contact can be indirect. A yes stands for co-enrichment or nearness to the bait. Other partners may have been found. No binding means not detected with the bait.

The experiment addresses recombinant LprI_01601 from Campylobacter concisus ESOS44-1 (Campylobacter concisus ESOS44-1). As to the kind of experiment: affinity purification with mass spectrometry; His-tagged LprI_01601 as bait, incubated with primary human macrophage non-detergent cell lysates, precipitated with magnetic bead conjugated anti-His-tag monoclonal antibody; fractions analysed by LC/MS-MS; repeated twice; negative control anti-His-tag IP without LprI_01601; only the target purified.

B1: legumain (enzyme, UniProt Q99538 18-323)
chain: VPIDDPEDGGKHWVVIVAGSNGWYNYRHQADACHAYQIIHRNGIPDEQIVVMMYDDIAYSEDNPTPGIVINRPNGTDVYQGVPKDYTGEDVTPQNFLAVLRGDAEAVKGIGSGKVLKSGPQDHVFIYFTDHGSTGILVFPNEDLHVKDLNETIHYMYKHKMYRKMVFYIEACESGSMMNHLPDNINVYATTAANPRESSYACYYDEKRSTYLGDWYSVNWMEDSDVEDLTKETLHKQYHLVKSHTNTSHVMQYGNKTISTMKVMQFQGMKRKASSPVPLPPVTHLDLTPSPDVPLTIMKRKLMNTN
In the case of B1, the binding entry was “binds”.

B2: human lysozyme (enzyme, UniProt P61626 19-148)
chain: KVFERCELARTLKRLGMDGYRGISLANWMCLAKWESGYNTRATNYNAGDRSTDYGIFQINSRYWCNDGKTPGAVNACHLSCSALLQDNIADAVACAKRVVRDPQGIRAWVAWRNRCQNRDVRQYVQGCGV
Turning to B2, the binding result is on record as “no binding”.
